Drawing on PMC4595830, this text covers binding for 21 molecules.

Sequences of proteins named here, by UniProt entry; tags and fusion partners are left off.
UniProt Q91YH6: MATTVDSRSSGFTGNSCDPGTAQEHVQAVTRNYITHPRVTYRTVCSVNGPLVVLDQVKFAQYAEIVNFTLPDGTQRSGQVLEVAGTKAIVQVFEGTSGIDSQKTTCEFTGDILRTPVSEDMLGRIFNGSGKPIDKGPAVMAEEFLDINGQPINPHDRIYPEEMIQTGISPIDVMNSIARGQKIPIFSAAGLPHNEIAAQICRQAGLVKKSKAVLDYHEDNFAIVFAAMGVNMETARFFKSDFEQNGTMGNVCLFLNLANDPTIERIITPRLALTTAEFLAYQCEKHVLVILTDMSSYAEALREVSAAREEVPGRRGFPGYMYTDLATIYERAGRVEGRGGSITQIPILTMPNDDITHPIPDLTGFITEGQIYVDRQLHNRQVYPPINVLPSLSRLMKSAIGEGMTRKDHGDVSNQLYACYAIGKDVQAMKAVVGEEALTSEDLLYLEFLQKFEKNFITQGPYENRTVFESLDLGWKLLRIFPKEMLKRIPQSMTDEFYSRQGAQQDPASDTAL
UniProt P15920: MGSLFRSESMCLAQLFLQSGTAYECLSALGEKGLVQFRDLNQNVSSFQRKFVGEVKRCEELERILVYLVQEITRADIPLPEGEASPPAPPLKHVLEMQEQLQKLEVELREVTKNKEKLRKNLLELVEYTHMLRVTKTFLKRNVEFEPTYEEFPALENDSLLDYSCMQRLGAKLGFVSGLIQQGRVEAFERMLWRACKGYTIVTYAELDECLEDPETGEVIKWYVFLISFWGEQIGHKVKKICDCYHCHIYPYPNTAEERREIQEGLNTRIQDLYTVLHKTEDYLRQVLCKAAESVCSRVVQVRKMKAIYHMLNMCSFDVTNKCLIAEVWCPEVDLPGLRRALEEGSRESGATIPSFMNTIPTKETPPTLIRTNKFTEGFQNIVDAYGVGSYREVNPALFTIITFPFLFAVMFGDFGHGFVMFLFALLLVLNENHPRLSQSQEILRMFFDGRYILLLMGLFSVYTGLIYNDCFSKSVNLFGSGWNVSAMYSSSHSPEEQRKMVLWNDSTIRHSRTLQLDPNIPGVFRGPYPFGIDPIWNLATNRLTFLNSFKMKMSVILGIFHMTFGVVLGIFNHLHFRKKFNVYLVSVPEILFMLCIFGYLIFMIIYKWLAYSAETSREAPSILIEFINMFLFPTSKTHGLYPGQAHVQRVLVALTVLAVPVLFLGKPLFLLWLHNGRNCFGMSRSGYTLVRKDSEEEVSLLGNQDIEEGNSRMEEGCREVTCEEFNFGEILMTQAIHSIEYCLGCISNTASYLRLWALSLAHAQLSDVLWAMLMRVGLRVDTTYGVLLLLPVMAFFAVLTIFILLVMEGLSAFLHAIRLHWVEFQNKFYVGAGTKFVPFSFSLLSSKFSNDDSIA
UniProt P50516: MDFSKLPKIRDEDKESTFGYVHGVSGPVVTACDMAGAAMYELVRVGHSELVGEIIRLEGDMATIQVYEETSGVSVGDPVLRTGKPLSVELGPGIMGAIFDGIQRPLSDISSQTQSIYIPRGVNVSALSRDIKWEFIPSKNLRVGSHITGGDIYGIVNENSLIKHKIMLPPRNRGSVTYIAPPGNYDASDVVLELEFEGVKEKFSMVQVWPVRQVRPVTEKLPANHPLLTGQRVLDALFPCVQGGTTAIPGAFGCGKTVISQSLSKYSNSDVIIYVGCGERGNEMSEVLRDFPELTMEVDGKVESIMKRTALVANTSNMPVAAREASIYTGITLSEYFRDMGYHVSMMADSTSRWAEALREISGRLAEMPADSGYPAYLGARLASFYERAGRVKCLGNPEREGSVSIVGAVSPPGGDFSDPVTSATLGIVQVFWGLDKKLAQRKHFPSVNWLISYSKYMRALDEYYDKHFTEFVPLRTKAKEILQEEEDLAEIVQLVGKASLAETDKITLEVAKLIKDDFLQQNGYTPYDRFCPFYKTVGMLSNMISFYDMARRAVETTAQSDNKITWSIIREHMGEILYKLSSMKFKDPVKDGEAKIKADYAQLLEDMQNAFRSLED
UniProt P57746: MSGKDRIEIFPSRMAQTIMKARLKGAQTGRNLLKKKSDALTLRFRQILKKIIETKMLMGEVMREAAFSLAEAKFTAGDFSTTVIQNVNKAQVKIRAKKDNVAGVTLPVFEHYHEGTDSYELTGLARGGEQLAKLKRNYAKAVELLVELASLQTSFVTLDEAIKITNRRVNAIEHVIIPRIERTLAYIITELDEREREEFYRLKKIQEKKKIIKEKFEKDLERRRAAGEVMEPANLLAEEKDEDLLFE
UniProt Q9D1K2: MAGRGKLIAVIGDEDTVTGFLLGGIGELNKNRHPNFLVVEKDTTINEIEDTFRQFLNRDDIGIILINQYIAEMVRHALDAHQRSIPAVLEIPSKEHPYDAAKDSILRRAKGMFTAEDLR
UniProt Q8BVE3: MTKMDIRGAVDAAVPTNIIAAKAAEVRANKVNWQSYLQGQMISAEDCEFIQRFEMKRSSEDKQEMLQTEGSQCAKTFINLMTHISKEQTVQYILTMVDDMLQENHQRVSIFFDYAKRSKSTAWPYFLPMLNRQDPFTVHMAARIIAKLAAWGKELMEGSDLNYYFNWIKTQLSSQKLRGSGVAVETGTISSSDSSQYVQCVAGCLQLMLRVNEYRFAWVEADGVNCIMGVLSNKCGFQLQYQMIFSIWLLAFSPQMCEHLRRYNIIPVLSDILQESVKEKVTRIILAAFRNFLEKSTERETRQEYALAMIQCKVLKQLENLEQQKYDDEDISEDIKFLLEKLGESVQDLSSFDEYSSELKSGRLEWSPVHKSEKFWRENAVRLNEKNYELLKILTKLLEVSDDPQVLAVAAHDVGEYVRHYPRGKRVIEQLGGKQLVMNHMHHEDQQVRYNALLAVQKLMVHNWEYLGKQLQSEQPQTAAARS
UniProt P80316: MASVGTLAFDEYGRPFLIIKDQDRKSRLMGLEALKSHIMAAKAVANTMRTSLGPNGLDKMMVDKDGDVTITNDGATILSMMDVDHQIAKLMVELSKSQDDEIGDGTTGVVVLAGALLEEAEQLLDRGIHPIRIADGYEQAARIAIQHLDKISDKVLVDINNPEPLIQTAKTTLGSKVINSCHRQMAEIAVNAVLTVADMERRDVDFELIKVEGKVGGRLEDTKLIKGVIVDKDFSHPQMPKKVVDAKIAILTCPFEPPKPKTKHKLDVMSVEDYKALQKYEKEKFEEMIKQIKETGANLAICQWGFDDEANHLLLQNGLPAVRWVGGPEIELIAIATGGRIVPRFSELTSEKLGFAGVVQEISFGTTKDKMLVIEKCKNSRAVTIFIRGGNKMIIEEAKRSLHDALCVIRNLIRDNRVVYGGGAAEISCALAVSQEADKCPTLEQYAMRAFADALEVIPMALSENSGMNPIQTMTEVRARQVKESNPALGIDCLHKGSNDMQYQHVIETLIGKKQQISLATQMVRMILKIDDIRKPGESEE
UniProt P80317: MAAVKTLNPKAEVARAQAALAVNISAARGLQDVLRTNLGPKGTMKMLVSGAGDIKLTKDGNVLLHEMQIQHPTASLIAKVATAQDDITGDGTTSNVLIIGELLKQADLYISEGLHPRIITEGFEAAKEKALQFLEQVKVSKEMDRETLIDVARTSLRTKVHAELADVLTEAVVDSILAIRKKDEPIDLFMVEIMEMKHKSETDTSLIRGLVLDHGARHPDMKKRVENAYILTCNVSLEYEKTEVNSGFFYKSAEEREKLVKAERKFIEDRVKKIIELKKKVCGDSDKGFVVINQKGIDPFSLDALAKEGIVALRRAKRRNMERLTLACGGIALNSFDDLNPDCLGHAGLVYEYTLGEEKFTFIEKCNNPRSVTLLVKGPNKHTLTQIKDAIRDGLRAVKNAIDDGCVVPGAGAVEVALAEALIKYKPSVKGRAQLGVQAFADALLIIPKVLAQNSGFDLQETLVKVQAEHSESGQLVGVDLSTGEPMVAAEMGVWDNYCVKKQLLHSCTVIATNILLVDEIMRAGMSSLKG
UniProt Q61390: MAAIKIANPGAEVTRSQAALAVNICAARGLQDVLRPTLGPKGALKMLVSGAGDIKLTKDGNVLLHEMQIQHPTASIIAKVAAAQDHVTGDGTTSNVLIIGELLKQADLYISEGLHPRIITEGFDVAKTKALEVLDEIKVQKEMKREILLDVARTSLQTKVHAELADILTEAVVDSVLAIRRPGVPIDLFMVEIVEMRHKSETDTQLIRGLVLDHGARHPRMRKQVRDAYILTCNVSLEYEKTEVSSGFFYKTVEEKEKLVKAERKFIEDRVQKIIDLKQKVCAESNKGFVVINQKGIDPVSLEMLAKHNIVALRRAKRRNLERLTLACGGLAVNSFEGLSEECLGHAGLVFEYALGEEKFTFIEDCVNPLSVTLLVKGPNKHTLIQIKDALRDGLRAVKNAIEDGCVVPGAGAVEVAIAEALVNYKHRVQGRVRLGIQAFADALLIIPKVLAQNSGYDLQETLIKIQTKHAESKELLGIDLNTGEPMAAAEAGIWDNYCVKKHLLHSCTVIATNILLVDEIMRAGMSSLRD
UniProt P18654: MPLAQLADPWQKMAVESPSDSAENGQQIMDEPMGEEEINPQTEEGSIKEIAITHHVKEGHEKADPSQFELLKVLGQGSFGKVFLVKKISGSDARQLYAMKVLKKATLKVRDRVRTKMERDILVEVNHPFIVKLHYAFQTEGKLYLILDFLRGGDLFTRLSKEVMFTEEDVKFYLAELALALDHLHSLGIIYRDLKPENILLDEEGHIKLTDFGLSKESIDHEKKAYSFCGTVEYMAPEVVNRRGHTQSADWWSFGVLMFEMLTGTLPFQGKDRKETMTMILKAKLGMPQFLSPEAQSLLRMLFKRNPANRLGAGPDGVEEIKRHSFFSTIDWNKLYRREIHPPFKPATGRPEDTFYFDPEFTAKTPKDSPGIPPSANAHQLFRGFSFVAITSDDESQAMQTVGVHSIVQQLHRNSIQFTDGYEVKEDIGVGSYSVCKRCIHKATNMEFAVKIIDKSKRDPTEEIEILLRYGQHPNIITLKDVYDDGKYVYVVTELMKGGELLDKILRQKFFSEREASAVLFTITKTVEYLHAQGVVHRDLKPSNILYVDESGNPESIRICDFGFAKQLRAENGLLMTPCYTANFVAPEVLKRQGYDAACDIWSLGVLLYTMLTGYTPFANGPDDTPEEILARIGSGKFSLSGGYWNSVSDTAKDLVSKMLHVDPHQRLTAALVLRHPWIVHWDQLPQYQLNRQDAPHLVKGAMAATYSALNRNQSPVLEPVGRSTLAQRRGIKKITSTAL
UniProt P11983: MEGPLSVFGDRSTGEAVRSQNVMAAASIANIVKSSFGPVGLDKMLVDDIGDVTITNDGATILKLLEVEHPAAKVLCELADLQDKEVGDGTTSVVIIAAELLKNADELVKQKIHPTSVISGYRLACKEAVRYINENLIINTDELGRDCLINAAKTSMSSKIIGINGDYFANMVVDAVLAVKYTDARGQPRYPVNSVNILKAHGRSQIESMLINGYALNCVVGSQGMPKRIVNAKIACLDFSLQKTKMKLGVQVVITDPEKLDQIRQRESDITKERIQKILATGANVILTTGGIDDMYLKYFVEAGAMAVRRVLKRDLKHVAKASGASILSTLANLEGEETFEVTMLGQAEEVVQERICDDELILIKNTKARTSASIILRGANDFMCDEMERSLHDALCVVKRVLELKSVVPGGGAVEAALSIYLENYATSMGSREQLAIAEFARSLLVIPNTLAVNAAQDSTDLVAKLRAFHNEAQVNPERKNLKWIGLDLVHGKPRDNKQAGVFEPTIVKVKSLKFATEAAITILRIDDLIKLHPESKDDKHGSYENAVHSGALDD

These are yes or no findings as the source states them, for the method shown. Binding seen in cells or lysates may run through a third protein. Here binding means that the protein was enriched with, or labelled near, the bait; the list need not be complete. For part of these data: No binding means not detected with the bait.

First the molecules themselves.
B1: solute carrier family 10, member 2 (protein, UniProt P70172 1-348)
chain: MDNSSVCPPNATVCEGDSCVVPESNFNAILNTVMSTVLTILLAMVMFSMGCNVEVHKFLGHIKRPWGIFVGFLCQFGIMPLTGFILSVASGILPVQAVVVLIMGCCPGGTGSNILAYWIDGDMDLSVSMTTCSTLLALGMMPLCLFVYTKMWVDSGTIVIPYDSIGISLVALVIPVSFGMFVNHKWPQKAKIILKIGSITGVILIVLIAVIGGILYQSAWIIEPKLWIIGTIFPIAGYSLGFFLARLAGQPWYRCRTVALETGMQNTQLCSTIVQLSFSPEDLNLVFTFPLIYTVFQLVFAAVILGIYVTYRKCYGKNDAEFLEKTDNEMDSRPSFDETNKGFQPDEK
B2: chaperonin containing Tcp1, subunit 3 (gamma) (protein, UniProt P80318 1-545)
chain: MMGHRPVLVLSQNTKRESGRKVQSGNINAAKTIADIIRTCLGPKSMMKMLLDPMGGIVMTNDGNAILREIQVQHPAAKSMIEISRTQDEEVGDGTTSVIILAGEMLSVAEHFLEQQMHPTVVISAYRMALDDMISTLKKISTPVDVNNREMMLSIINSSITTKVISRWSSLACNIALDAVKTVQFEENGRKEIDIKKYARVEKIPGGIIEDSCVLRGVMINKDVTHPRMRRYIKNPRIVLLDSSLEYKKGESQTDIEITREEDFTRILQMEEEYIHQLCEDIIQLKPDVVITEKGISDLAQHYLMRANVTAIRRVRKTDNNRIARACGARIVSRPEELREDDVGTGAGLLEIKKIGDEYFTFITDCKDPKACTILLRGASKEILSEVERNLQDAMQVCRNVLLDPQLVPGGGASEMAVAHALTEKSKAMTGVEQWPYRAVAQALEVIPRTLIQNCGASTIRLLTSLRAKHTQESCETWGVNGETGTLVDMKELGIWEPLAVKLQTYKTAVETAVLLLRIDDIVSGHKKKGDDQNRQTGAPDAGQE
B3: chaperonin containing Tcp1, subunit 4 (delta) (protein, UniProt P80315 1-539)
chain: MPENVASRSGAPTAGPGSRGKSAYQDRDKPAQIRFSNISAAKAVADAIRTSLGPKGMDKMIQDGKGDVTITNDGATILKQMQVLHPAARMLVELSKAQDIEAGDGTTSVVIIAGSLLDSCTKLLQKGIHPTIISESFQKALEKGLEILTDMSRPVQLSDRETLLNSATTSLNSKVVSQYSSLLSPMSVNAVMKVIDPATATSVDLRDIKIVKKLGGTIDDCELVEGLVLTQKVANSGITRVEKAKIGLIQFCLSAPKTDMDNQIVVSDYAQMDRVLREERAYILNLVKQIKKTGCNVLLIQKSILRDALSDLALHFLNKMKIMVVKDVEREDIEFICKTIGTKPVAHIDQFTADMLGSAELAEEVSLNGSGKLFKITGCTSPGKTVTIVVRGSNKLVIEEAERSIHDALCVIRCLVKKRALIAGGGAPEIELALRLTEYSRTLSGMESYCVRAFADAMEVIPSTLAENAGLNPISTVTELRNRHAQGEKTTGINVRKGGISNILEEMVVQPLLVSVSALTLATETVRSILKIDDVVNTR
B4: chaperonin containing Tcp1, subunit 2 (beta) (protein, UniProt P80314 1-535)
chain: MASLSLAPVNIFKAGADEERAETARLSSFIGAIAIGDLVKSTLGPKGMDKILLSSGRDAALMVTNDGATILKNIGVDNPAAKVLVDMSRVQDDEVGDGTTSVTVLAAELLREAESLIAKKIHPQTIISGWREATKAAREALLSSAVDHGSDEARFWQDLMNIAGTTLSSKLLTHHKDHFTKLAVEAVLRLKGSGNLEAIHVIKKLGGSLADSYLDEGFLLDKKIGVNQPKRIENAKILIANTGMDTDKIKIFGSRVRVDSTAKVAEIEHAEKEKMKEKVERILKHGINCFINRQLIYNYPEQLFGAAGVMAIEHADFAGVERLALVTGGEIASTFDHPELVKLGSCKLIEEVMIGEDKLIHFSGVALGEACTIVLRGATQQILDEAERSLHDALCVLAQTVKDPRTVYGGGCSEMLMAHAVTQLANRTPGKEAVAMESFAKALRMLPTIIADNAGYDSADLVAQLRAAHSEGHITAGLDMKEGTIGDMAVLGITESFQVKRQVLLSAAEAAEVILRVDNIIKAAPRKRVPDHHPC
B5: Rho guanine nucleotide exchange factor (GEF7) (protein, UniProt Q9ES28 1-862)
chain: MNSAEQTVTWLITLGVLESPKKTISDPEVFLQASLKDGVVLCRLLERLLPGTIEKVYPEPRNESECLSNIREFLRACGASLRLETFDANDLYQGQNFNKVLSSLVTLNKVTADIGLGSDSVCARPSSHRIKSFDSLGSQSSHSRTSKLLQSQYRSLDMTDNTNSQLVVRAKFNFQQTNEDELSFSKGDVIHVTRVEEGGWWEGTHNGRTGWFPSNYVREIKPSEKPVSPKSGTLKSPPKGFDTTAINKSYYNVVLQNILETEHEYSKELQSVLSTYLRPLQTSDKLSSANTSYLMGNLEEISSFQQVLVQSLEECTKSPEAQQRVGGCFLSLMPQMRTLYLAYCANHPSAVSVLTEHSEDLGEFMETKGASSPGILVLTTGLSKPFMRLDKYPTLLKELERHMEDYHPDRQDIQKSMTAFKNLSAQCQEVRKRKELELQILTEPIRSWEGDDIKTLGSVTYMSQVTIQCAGSEEKNERYLLLFPNLLLMLSASPRMSGFIYQGKLPTTGMTITKLEDSENHRNAFEISGSMIERILVSCTSQQDLHEWVEHLQKQTKVTSVSNPTIKPHSVPSHTLPSHPLTPSSKHADSKPVALTPAYHTLPHPSHHGTPHTTISWGPLEPPKTPKPWSLSCLRPAPPLRPSAALCYKEDLSKSPKTMKKLLPKRKPERKPSDEEFAVRKSTAALEEDAQILKVIEAYCTSAKTRQTLNSTWQGTDLMHNHVLADDDQSSLDSLGRRSSLSRLEPSDLSEDSEYDSIWTAHSYRMGSASRSRKESAPQVLLPEEEKIIVEETKSNGQTVIEEKSLVDTVYALKDEVQELRQDNKKMKKSLEEEQRARKDLEKLVRKVLKNMNDPAWDETNL

In the first assay the target is ATPase, H+ transporting, lysosomal V1 subunit B1 (mouse (endogenous in kidney)) (UniProt Q91YH6). As to the kind of experiment: affinity purification with mass spectrometry; anti-ATP6V1B1 antibodies cross-linked to Protein A/G Plus agarose; mouse kidney lysate (20 mM Hepes-NaOH pH 7.5, 150 mM NaCl, 1% NP-40); SDS-PAGE, LC-MS/MS, scored with CRAPome/SAINT against beads-only, B1-knockout and peptide-blocked controls.
Turning to ATP6V0A2 (from UniProt P15920 1-856), the binding result is given as “no binding”.

On to ATP6V0A3 (from UniProt Q9JHF5), for which the binding entry is “no binding”.

Regarding ATP6V0B (from UniProt Q91V37 1-205), the binding result is “no binding”.

ATP6V0E2 (from UniProt Q91XE7 1-81): the binding entry is listed as “no binding”.

“ATPase, H+ transporting, lysosomal V1 subunit A (from UniProt P50516 1-617)”: the binding result is “binds”.

Take “ATPase, H+ transporting, lysosomal V1 subunit D (from UniProt P57746 1-247)”: the binding result is on record as “binds”.

As for “ATPase, H+ transporting, lysosomal V1 subunit F (from UniProt Q9D1K2 1-119)”, the binding entry is recorded as “binds”.

With “ATPase, H+ transporting, lysosomal V1 subunit H (from UniProt Q8BVE3 1-483)”, the binding result is recorded as “binds”.

On to Dmx-like 1 (from UniProt Q6PNC0 1-3013), for which the binding result is “binds”.

In the case of Dmx-like 2 (from UniProt Q8BPN8 1-3032), the binding entry was “binds”.

As to “WD repeat domain 7 (from UniProt Q920I9 1-1489)”, the binding result is on record as “binds”.

Consider “chaperonin containing Tcp1, subunit 5 (epsilon) (from UniProt P80316 1-541)”, for which the binding entry is on record as “binds”.

With “chaperonin containing Tcp1, subunit 6a (zeta) (from UniProt P80317 1-531)”, the binding result is given as “binds”.

For the molecule “chaperonin containing Tcp1, subunit 6b (zeta) (from UniProt Q61390 1-531)”, the binding result is listed as “binds”.

With “ribosomal protein S6 kinase polypeptide 3 (from UniProt P18654 1-740)”, the binding entry was “binds”.

On to “t-complex protein 1 (from UniProt P11983 1-556)”, for which the binding result is “binds”.

Another assay has the same target. Described as above. The source holds these as a separate data set.
On to B1, for which the binding entry was “binds”.

For B2, the binding result is reported as “binds”.

On to B3, for which the binding entry is reported as “binds”.

Turning to B4, the binding entry is “binds”.

Consider B5, for which the binding result is given as “binds”.
